Laboratory results: PubChem BioAssay AID1224826 (NIAID, 2016)
Here is an unselected part of about 17,000 reagents. Of all reagents, about 1,110 (6.6%) are marked active. 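Active means lowered or raised reporter signal; replicate intensities are raw and not normalised per plate.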

Test: 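Genes that change LPS-induced Tnf promoter activity in mouse macrophages when knocked down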 (primary screen)
System: RAW264.7 G9 macrophages from mouse bearing reporters for p65 (GFP) and the Tnf promoter (mCherry)
Reagent: siRNA pool against mouse genes, 100 nM
Time to read-out: 16 h of LPS stimulation, after 2 days of siRNA transfection
Treatment: bacterial lipopolysaccharide (Salmonella minnesota R595), 10 ng/ml
Measurement: 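Nuclear mCherry signal of the Tnf promoter reporter measured by imaging after background removal, scaled to each plate median and turned into robust z-scores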
Reading the numbers: Tnf reporter robust z-score: higher = stronger Tnf promoter reporter signal after LPS; Tnf reporter intensity: higher = stronger Tnf promoter reporter signal
Call rule: 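Called active when robust z-score is at most -1.3, matching the median of the Tlr4 knock-down control, or over 3; control wells and wells with under 50 cells never active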
Calls: active = Tnf reporter clearly lowered or raised; inactive = no clear change in Tnf reporter

Target gene	Tnf reporter robust z-score	fewer than 50 cells in well	Tnf reporter intensity, replicate 1	Tnf reporter intensity, replicate 2	Call
6030498E09Rik (GeneID 77883)	0.35	enough cells in well	235	129	inactive
Psph (GeneID 100678)	-0.12	enough cells in well	265	159	inactive
Ly9 (GeneID 17085)	-0.65	enough cells in well	150	68.3	inactive
Xrcc5 (GeneID 22596)	0.07	enough cells in well	249	219	inactive
Manf (GeneID 74840)	-1.25	enough cells in well	92.5	104	inactive
Kifbp (GeneID 72320)	-0.09	enough cells in well	189	84.4	inactive
Cab39l (GeneID 69008)		fewer than 50 cells per well; well left out of calls	205	62.5	inactive
Tafa2 (GeneID 268354)	-1.05	enough cells in well	147	109	inactive
Or52z12 (GeneID 258838)		fewer than 50 cells per well; well left out of calls	68.2	183	inactive
Sgk3 (GeneID 170755)	0.81	enough cells in well	286	170	inactive
Sox15 (GeneID 20670)	-0.77	enough cells in well	181	181	inactive
Sucnr1 (GeneID 84112)	-0.64	enough cells in well	142	278	inactive
Srm (GeneID 20810)	-0.96	enough cells in well	172	160	inactive
Ero1b (GeneID 67475)		fewer than 50 cells per well; well left out of calls	84.6	39.7	inactive
Hmbox1 (GeneID 219150)	-0.27	enough cells in well	186	150	inactive
Trappc11 (GeneID 320714)	-0.37	enough cells in well	182	133	inactive
Atp6v1b1 (GeneID 110935)	1.15	enough cells in well	178	258	inactive
Cabp1 (GeneID 29867)	0	enough cells in well	133	179	inactive
Sprr2e (GeneID 20759)	4.19	enough cells in well	234	247	active
Arl2 (GeneID 56327)	-1.27	enough cells in well	113	77.7	inactive
Chga (GeneID 12652)	-0.72	enough cells in well	195	149	inactive

Hits, among the entries above:
Target gene	Tnf reporter robust z-score	fewer than 50 cells in well	Tnf reporter intensity, replicate 1	Tnf reporter intensity, replicate 2	Call
Sprr2e (GeneID 20759)	4.19	enough cells in well	234	247	active

Continued.
Target gene	Tnf reporter robust z-score	fewer than 50 cells in well	Tnf reporter intensity, replicate 1	Tnf reporter intensity, replicate 2	Call
Larp4b (GeneID 217980)	-0.71	enough cells in well	197	150	inactive
Coq6 (GeneID 217707)	0.02	enough cells in well	222	140	inactive
Fut9 (GeneID 14348)	-0.8	enough cells in well	225	70.5	inactive
Gpr157 (GeneID 269604)	0.87	enough cells in well	279	204	inactive
P2rx7 (GeneID 18439)	-0.31	enough cells in well	203	173	inactive
Nav3 (GeneID 260315)		fewer than 50 cells per well; well left out of calls	190	219	inactive
Asns (GeneID 27053)		fewer than 50 cells per well; well left out of calls	52.2	149	inactive
Top2a (GeneID 21973)	0.62	enough cells in well	261	175	inactive
Eln (GeneID 13717)	0.65	enough cells in well	283	277	inactive
Or51r1 (GeneID 259108)	-1.76	enough cells in well	55.7	44.3	active
Gmeb1 (GeneID 56809)	-0.47	enough cells in well	189	169	inactive
Fgf5 (GeneID 14176)	-0.21	enough cells in well	234	223	inactive
Chmp2a (GeneID 68953)	1.27	enough cells in well	397	91.6	inactive
St3gal2 (GeneID 20444)	0.38	enough cells in well	101	128	inactive
Etfb (GeneID 110826)	-0.51	enough cells in well	165	217	inactive
Azi2 (GeneID 27215)	-1.66	enough cells in well	79.4	65.7	active
Poldip3 (GeneID 73826)	0.22	enough cells in well	167	111	inactive
Zfy2 (GeneID 22768)		fewer than 50 cells per well; well left out of calls	107	34.7	inactive
Nkx2-3 (GeneID 18089)	0.44	enough cells in well	339	161	inactive
Clic3 (GeneID 69454)	1.05	enough cells in well	315	299	inactive
Inpp4a (GeneID 269180)	-0.34	enough cells in well	216	130	inactive
Art2b (GeneID 11872)	2.1	enough cells in well	316	258	inactive
Plcb4 (GeneID 18798)	-0.14	enough cells in well	232	186	inactive
Fstl4 (GeneID 320027)	-1.31	enough cells in well	92.3	94.7	active
Foxi1 (GeneID 14233)	1.13	enough cells in well	339	339	inactive
Nif3l1 (GeneID 65102)	-0.36	enough cells in well	169	129	inactive
Cmtm5 (GeneID 67272)	1.8	enough cells in well	263	286	inactive
Stard13 (GeneID 243362)	1	enough cells in well	187	84.3	inactive
Wdr7 (GeneID 104082)	-0.53	enough cells in well	232	173	inactive
Marveld1 (GeneID 277010)	4.27	enough cells in well	412	337	active
Angptl3 (GeneID 30924)	1.24	enough cells in well	214	269	inactive
Caap1 (GeneID 67770)	-0.61	enough cells in well	135	122	inactive
Fgd6 (GeneID 13998)	0.88	enough cells in well	384	259	inactive
Rere (GeneID 68703)	-0.85	enough cells in well	226	142	inactive
Myh8 (GeneID 17885)	-0.72	enough cells in well	150	43.2	inactive
Psg16 (GeneID 26436)	-0.54	enough cells in well	101	101	inactive
Ano9 (GeneID 71345)	-1.21	enough cells in well	127	85.7	inactive
